Measured values published in patent publication US9155792B2, “RecA inhibitors with antibiotic activity, compositions and methods of use” (Trustees of Boston University, priority 2006, dated 2015).
At least one compound was matched to its structure with a doubt left.

What was measured:
[1] = Survival assay in LB with 10% mouse serum; assay type: cell-based; details: LB with 10% mouse serum vs LB
[2] = test system: S. aureus strain (S7) that is mildly resistant to ciprofloxacin; assay: Cell-based survival assay, ciprofloxacin-resistant S. aureus strain S7
[3] = test system: E. coli strain; assay: Cell-based survival assay, E. coli strain
[4] = test system: S. aureus strain S3 (ISP 794); assay: Cell-based survival assay, S. aureus strain S3 (RecA+)

**Q.** What does the source list for `O=c1cc(-c2ccc(Oc3c(O)cc4oc(-c5ccc(O)cc5)cc(=O)c4c3O)cc2)oc2cc(O)cc(O)c12` [hinokiflavone]?
**A.** potentiation of ciprofloxacin in presence of mouse serum [1]: retained activity; potentiation of ciprofloxacin activity [2]: potentiated; antibiotic activity [3]: not observed to have antibiotic activity; potentiation of ciprofloxacin antibiotic activity in survival assay ([4]; 1 μg/ml ciprofloxacin + 25 μg/ml hinokiflavone, 16 hour time point, FIG. 10): strongly potentiates; potentiation of ciprofloxacin antibiotic activity in survival assay ([4]; 1 μg/ml ciprofloxacin, 50 μg/ml compound, 16 hours, FIG. 9): potentiated; antibiotic activity alone (absence of ciprofloxacin) ([4]; several repeats, particularly at high concentrations): modest antibiotic activity
